Data from the supplement of paper PMC10849652.
The list shows a part of the results.

Chains of the proteins cited; added tags and fusions are not shown. Lines headed by an entry give the natural chain unless they say otherwise; changes in a name come on top.
UniProt Q96MN5: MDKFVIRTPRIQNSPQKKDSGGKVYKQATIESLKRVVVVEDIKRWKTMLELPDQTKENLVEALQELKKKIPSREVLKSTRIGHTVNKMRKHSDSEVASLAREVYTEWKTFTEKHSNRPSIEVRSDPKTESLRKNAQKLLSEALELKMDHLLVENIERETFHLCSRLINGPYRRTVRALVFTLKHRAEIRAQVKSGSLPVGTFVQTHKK
UniProt Q96BW9: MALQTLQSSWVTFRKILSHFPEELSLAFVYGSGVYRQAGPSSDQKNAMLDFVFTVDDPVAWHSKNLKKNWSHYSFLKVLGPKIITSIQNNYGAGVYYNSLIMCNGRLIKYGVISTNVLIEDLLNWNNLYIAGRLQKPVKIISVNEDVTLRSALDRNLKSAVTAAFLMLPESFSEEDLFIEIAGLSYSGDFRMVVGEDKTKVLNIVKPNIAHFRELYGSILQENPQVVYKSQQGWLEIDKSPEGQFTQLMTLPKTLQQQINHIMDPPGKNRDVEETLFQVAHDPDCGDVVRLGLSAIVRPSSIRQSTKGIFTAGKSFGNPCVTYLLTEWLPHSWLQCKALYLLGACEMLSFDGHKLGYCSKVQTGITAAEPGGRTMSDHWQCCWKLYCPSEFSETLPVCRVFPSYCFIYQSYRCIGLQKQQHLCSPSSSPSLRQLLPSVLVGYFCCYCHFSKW
UniProt Q9UP52: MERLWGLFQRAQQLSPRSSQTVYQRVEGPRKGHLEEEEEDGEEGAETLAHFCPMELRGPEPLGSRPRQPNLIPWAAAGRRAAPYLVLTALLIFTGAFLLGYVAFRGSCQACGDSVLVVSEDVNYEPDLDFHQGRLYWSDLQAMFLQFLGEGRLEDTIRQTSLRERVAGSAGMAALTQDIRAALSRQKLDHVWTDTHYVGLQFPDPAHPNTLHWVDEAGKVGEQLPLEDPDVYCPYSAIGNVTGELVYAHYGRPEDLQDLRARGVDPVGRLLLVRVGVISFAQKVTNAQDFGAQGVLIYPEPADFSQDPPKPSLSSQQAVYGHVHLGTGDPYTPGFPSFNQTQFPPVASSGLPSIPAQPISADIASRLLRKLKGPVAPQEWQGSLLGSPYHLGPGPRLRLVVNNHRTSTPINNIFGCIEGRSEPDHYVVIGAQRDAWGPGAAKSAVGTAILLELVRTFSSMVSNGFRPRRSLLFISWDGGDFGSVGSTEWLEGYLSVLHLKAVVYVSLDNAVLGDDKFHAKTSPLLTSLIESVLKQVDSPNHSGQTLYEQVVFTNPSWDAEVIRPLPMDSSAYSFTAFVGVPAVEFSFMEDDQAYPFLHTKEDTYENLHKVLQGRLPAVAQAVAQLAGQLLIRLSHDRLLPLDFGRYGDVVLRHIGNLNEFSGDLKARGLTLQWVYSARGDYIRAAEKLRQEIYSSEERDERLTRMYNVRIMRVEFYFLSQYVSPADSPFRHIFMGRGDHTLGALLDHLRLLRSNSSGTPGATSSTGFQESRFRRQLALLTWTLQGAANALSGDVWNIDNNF
UniProt Q9UPU7: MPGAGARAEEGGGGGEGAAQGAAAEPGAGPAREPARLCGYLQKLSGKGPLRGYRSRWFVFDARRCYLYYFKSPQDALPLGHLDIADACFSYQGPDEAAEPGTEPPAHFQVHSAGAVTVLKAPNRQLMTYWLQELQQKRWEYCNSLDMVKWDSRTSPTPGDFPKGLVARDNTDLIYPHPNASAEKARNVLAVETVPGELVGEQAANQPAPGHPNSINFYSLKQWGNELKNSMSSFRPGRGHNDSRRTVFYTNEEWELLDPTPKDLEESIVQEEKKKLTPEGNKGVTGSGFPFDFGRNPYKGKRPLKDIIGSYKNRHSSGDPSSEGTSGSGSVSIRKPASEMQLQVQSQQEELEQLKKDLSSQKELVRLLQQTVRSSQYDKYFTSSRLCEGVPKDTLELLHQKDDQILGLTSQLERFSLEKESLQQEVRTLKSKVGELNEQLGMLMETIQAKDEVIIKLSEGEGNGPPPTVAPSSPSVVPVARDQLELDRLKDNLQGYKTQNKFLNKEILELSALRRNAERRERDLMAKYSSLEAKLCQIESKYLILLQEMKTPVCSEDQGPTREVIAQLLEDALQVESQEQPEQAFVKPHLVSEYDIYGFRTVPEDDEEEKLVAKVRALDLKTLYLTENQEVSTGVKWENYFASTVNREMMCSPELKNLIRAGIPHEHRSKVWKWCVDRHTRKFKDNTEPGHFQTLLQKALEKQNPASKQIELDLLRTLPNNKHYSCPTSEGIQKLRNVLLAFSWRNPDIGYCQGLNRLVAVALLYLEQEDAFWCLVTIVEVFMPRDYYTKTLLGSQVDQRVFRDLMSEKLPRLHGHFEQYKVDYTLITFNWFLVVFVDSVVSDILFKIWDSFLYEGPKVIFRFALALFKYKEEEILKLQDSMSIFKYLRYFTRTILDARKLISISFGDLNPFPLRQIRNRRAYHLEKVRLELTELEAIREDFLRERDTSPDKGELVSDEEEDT
UniProt Q4KMP7: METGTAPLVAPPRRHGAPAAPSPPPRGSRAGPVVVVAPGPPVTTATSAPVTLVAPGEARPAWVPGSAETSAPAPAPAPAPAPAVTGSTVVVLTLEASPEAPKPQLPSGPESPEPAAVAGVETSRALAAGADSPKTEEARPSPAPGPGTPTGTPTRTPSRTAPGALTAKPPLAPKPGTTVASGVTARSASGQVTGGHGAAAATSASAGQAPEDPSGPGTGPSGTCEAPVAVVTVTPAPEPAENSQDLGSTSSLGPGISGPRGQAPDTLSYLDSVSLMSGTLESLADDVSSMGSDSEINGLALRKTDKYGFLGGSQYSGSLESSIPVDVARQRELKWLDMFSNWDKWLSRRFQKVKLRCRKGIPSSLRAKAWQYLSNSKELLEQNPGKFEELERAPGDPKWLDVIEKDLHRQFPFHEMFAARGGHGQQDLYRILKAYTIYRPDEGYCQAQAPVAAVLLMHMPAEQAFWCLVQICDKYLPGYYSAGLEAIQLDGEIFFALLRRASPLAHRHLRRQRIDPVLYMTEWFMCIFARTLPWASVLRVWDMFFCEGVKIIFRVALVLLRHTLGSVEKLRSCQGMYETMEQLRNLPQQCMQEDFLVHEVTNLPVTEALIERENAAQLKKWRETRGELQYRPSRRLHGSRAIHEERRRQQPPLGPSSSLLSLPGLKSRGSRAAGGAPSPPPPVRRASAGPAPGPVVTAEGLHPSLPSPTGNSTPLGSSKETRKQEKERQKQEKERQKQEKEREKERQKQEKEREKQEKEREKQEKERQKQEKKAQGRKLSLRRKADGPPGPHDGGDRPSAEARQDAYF
UniProt Q8NDF8: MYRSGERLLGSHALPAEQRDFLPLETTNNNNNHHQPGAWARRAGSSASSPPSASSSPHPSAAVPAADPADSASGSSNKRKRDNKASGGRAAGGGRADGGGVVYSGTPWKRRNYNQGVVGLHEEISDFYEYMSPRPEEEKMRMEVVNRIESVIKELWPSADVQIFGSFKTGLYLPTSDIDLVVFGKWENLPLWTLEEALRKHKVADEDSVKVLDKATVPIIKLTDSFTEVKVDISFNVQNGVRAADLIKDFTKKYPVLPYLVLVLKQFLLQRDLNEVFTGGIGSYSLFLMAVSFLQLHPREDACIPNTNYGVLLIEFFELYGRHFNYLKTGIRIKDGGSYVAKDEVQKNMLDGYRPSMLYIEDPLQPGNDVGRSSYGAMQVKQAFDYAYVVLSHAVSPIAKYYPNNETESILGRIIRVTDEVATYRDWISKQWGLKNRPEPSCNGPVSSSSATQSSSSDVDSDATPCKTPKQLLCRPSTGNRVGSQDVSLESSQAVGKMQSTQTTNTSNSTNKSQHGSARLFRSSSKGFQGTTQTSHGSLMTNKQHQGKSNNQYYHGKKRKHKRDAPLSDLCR
UniProt P62380: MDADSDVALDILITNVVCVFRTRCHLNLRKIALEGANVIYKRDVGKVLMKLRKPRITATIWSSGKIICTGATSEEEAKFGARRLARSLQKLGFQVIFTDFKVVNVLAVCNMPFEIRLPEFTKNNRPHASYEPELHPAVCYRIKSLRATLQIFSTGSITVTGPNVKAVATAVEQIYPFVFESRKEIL

Columns and labels:
Assay in all cases: log2 fold change, soluble protein after heating vs DMSO (PISA); higher = thermal stabilisation; K562 lysate, 10 uM; active = over 0.2 and 3.5 SD of the protein, either way, in both replicates (recomputed)
[1] = compound: C1=CC=C(C=C1)[C@H](COC2=CC3=C(C=C2)NC(=O)N3)NC(=O)C4=CC=CN(C4=O)CC5=CC(=C(C=C5)F)F
In short: (§1)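 Values give the log-two fold change in thermal stability against solvent controls, from duplicates. Crude K562 extract at 1 mg/mL protein, made by dounce homogenisation in PBS pH 7.4 with 1 mM MgCl2, was treated with 10 μM compound for 30 min. After 3 min heating across 48°C-58°C, aliquots were pooled, adjusted to 0.5% NP-40 at 4°C and centrifuged at 21,000xg for 90 min. The supernatant was measured by TMTpro 16plex LC-MS/MS with channel sums equalised.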

[2] = compound: CC1=C(SC2=C1C(=N[C@H](C3=NN=C(N32)C)CC(=O)N)C4=CC=C(C=C4)Cl)C
In short: as §1

[3] = compound: CC1=C2C(=CC=C1)N=C(N(C2=O)C3=CC=CC=C3C)CN4C=NC5=C(N=CN=C54)N
In short: as §1

[4] = compound: Cc1sc2c(c1C)C(c1ccc(Cl)cc1)=N[C@@H](CC(=O)OC(C)(C)C)c1nnc(C)n1-2
In short: as §1

[5] = compound: c1ccc([C@@H]2C[C@H]2NC2CCNCC2)cc1
In short: as §1

Measured: log2 fold change

TCEANC2 (UniProt Q96MN5)
inactive: [1] -0.041 | [2] -0.022 | [3] 0.081 | [4] -0.086

TAMM41 isoform 3 (UniProt Q96BW9)
inactive: [1] -0.12 | [2] -0.02 | [3] -0.079 | [4] -0.011 | [5] 0.023

TFR2 (UniProt Q9UP52)
inactive: [1] 0.055 | [2] 0.015 | [3] 0.019 | [4] -0.055 | [5] -0.023

TCEA1 (UniProt P23193)
inactive: [1] 0.048 | [2] -0.009 | [3] -0.028 | [4] -0.031 | [5] -0.036

TBC1D2B (UniProt Q9UPU7)
inactive: [1] -0.024 | [2] 0.139 | [3] -0.048 | [4] -0.065 | [5] -0.008

TBC1D10B (UniProt Q4KMP7)
inactive: [1] 0.075 | [2] 0.03 | [3] -0.016 | [4] 0.014 | [5] -0.035

TENT4B isoform 5 (UniProt Q8NDF8)
inactive: [1] 0.008 | [2] 0.129

TBPL1 (UniProt P62380)
inactive: [1] 0.055 | [2] 0.061 | [3] 0.008 | [4] 0.041 | [5] 0.028

TAF9B (UniProt Q9HBM6)
inactive: [1] -0.22 | [2] -0.003 | [3] 0.144 | [4] 0.082 | [5] -0.092
